Reference: US20070054899A1 (priority 2003, published 2007)

What follows are molecules tested against T1, aromatase (microsomes from the human placenta) (Homo sapiens, UniProt P11511) (assay: Aromatase inhibition in vitro, tritiated water method, human placenta microsomes). Conditions: value marked (h).
T1 construct: using microsomes from the human placenta as source of the enzyme; from tissue; host or cells: human placenta microsomes
T1 sequence (P11511 1-503): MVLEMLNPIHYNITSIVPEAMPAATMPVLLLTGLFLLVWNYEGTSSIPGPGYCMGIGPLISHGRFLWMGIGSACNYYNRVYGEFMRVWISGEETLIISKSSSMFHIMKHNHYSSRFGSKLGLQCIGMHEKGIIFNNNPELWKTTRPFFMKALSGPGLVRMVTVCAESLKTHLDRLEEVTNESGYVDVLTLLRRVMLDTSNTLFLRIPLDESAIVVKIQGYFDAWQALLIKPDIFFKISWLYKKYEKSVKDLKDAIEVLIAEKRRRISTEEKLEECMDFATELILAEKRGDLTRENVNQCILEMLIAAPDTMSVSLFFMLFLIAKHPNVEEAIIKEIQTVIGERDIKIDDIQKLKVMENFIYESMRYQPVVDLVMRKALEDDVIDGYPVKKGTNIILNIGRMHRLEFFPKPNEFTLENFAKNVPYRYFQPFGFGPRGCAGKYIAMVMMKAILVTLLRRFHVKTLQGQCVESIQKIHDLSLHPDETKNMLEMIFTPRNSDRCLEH
Format: biochemical
`Cn1c(=O)sc2cc(C(c3ccccc3)n3ccnc3)ccc21` (racemic) [(+/−)PCH28, 6-[1H-Imidazol-1-yl(phenyl)methyl]-3-methyl-1,3-benzothiazol-2(3H)-one] gave an IC50 of 12.1 nM. With `Cn1c(=O)sc2cc(C(c3ccccc3)n3ccnc3)ccc21` (racemic) [(E1)PCH28] the IC50 was 24.4 nM. Molecule `Cn1c(=O)sc2cc(C(c3ccccc3)n3ccnc3)ccc21` (racemic) [(E2) PCH28] has an IC50 of 26.4 nM.
